For two molecules, binding results are on record in PMC12063666.

The assay has as its target T1, cognate myosin heavy chain fragment (comprising residues 709 to 840) (UniProt P05661).
T1 sequence: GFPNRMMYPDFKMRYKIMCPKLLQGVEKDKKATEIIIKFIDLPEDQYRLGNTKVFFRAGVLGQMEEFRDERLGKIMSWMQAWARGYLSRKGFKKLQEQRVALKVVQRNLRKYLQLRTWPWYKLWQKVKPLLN
Kind of assay: co-expression and co-purification; three proteins coexpressed in E. coli as His14-ScSUMO and His14-NEDD8 fusions, captured on Ni-chelate beads, eluted by tag cleavage with Ulp1 and NEDP1.

These are yes or no findings as the source states them, for the method shown. Some results given as binding are weak or reduced against the parent protein; the word gives no strength.

B1: Mlc1 (myosin light chain 1) (protein, UniProt P06742 1-155)
chain: MADVPKREVENVEFVFEVMGSPGEGIDAVDLGDALRALNLNPTLALIEKLGGTKKRNEKKIKLDEFLPIYSQVKKEKEQGCYEDFIECLKLYDKEENGTMLLAELQHALLALGESLDDEQVETLFADCMDPEDDEGFIPYSQFVQRLMSDPVVFD
On to B1, for which the binding entry is “binds”.

B2: Mlc2 (myosin light chain 2) (protein, UniProt P18432 1-222)
chain: MADEKKKVKKKKTKEEGGTSETASEAASEAATPAPAATPAPAASATGSKRASGGSRGSRKSKRAGSSVFSVFSQKQIAEFKEAFQLMDADKDGIIGKNDLRAAFDSVGKIANDKELDAMLGEASGPINFTQLLTLFANRMATSGANDEDEVVIAAFKTFDNDGLIDGDKFREMLMNFGDKFTMKEVDDAYDQMVIDDKNQIDTAALIEMLTGKGEEEEEEAA
With B2, the binding entry was “binds”.
